The assay has as its target sarcoplasmic/endoplasmic reticulum calcium-ATPase 2a (SERCA2a), endogenous in mouse heart (mouse (endogenous in mouse heart)), O55143. The experiment in a line: western blot of high molecular weight (oligomeric) species; heart lysates of Speg3A-knockin mice and WT littermates (7-month-old); oligomerization of endogenous SERCA2a by western blot, quantified. Conditions: remark: other sources report otherwise.

These are yes or no findings as the source states them, for the method shown. Some binding calls cover weakened binding; strength is not graded here.

B1: sarcoplasmic/endoplasmic reticulum calcium-ATPase 2a (SERCA2a), endogenous in mouse heart, O55143-2 1-998 (enzyme)
chain: MENAHTKTVEEVLGHFGVNESTGLSLEQVKKLKERWGSNELPAEEGKTLLELVIEQFEDLLVRILLLAACISFVLAWFEEGEETITAFVEPFVILLILVANAIVGVWQERNAENAIEALKEYEPEMGKVYRQDRKSVQRIKAKDIVPGDIVEIAVGDKVPADIRLTSIKSTTLRVDQSILTGESVSVIKHTDPVPDPRAVNQDKKNMLFSGTNIAAGKAMGVVVATGVNTEIGKIRDEMVATEQERTPLQQKLDEFGEQLSKVISLICIAVWIINIGHFNDPVHGGSWIRGAIYYFKIAVALAVAAIPEGLPAVITTCLALGTRRMAKKNAIVRSLPSVETLGCTSVICSDKTGTLTTNQMSVCRMFILDKVEGDTCSLNEFSITGSTYAPIGEVQKDDKPVKCHQYDGLVELATICALCNDSALDYNEAKGVYEKVGEATETALTCLVEKMNVFDTELKGLSKIERANACNSVIKQLMKKEFTLEFSRDRKSMSVYCTPNKPSRTSMSKMFVKGAPEGVIDRCTHIRVGSTKVPMTPGVKQKIMSVIREWGSGSDTLRCLALATHDNPLKREEMHLEDSANFIKYETNLTFVGCVGMLDPPRIEVASSVKLCRQAGIRVIMITGDNKGTAVAICRRIGIFGQDEDVTSKAFTGREFDELSPSAQRDACLNARCFARVEPSHKSKIVEFLQSFDEITAMTGDGVNDAPALKKSEIGIAMGSGTAVAKTASEMVLADDNFSTIVAAVEEGRAIYNNMKQFIRYLISSNVGEVVCIFLTAALGFPEALIPVQLLWVNLVTDGLPATALGFNPPDLDIMNKPPRNPKEPLISGWLFFRYLAIGCYVGAATVGAAAWWFIAADGGPRVSFYQLSHFLQCKEDNPDFDGVDCAIFESPYPMTMALSVLVTIEMCNALNSLSENQSLLRMPPWENIWLVGSICLSMSLHFLILYVEPLPLIFQITPLNLTQWLMVLKISLPVILMDETLKFVARNYLEQPAILE
Take B1: the binding entry is given as “binds”.

The values above are taken from publication PMC7198626.
